Results taken from the supplement of paper PMC3334620.
Over roughly 33,000 sequences, “E-score (-0.5 to 0.5)” has its median near -8e-05; the highest 2% begin near 0.23. Some of the results follow.

Each sequence was assayed against T1, Nrg2 (UniProt P38082) (assay: PBM E-score (8-mer binding enrichment) (E-score (-0.5 to 0.5)); higher = stronger / more preferred TF binding). Details: protein concentration: 100 nM; construct: GST-full length.
T1 sequence: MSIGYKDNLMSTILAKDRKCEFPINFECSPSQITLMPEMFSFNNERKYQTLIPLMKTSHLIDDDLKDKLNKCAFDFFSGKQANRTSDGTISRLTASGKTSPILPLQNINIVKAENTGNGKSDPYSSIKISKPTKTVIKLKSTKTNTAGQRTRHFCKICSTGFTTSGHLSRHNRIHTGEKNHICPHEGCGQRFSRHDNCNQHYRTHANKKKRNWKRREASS
In short: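 Full-length yeast transcription factors or their DNA-binding domains, GST-tagged and expressed with PURExpress, were applied at about 100-200 nM to universal all-10-mer Agilent arrays. These arrays had been made double-stranded by primer extension on fresh or once-stripped slides. Detection used fluorescent anti-GST, normalisation used masliner, and E-scores for ungapped eight-base words pooled with reverse complements came from the Universal PBM Analysis Suite.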
For AATCTCAG, the “PBM E-score” value was -0.0894.
GCGAGCAC was tested, and the “PBM E-score” value was 0.0453.
In the case of GCTCAAAC, the “PBM E-score” value was 0.0315.
With AGTCGCAT the “PBM E-score” value was 0.00245.
ATTATGAA was tested, and the “PBM E-score” value was 0.155.
CGTTTTCA was tested, and the “PBM E-score” value was 0.124.
GTGTTCGA was tested, and the “PBM E-score” value was 0.202.
AAACGTCC was tested, and the “PBM E-score” value was -0.0517.
For ATAAAATA, the “PBM E-score” value was 0.161.
With CCGCCCCG the “PBM E-score” value was 0.309.
In the case of ACGATGCG, the “PBM E-score” value was -0.167.
AAGTAGAT was tested, and the “PBM E-score” value was 0.108.
CGCTCACG was tested, and the “PBM E-score” value was 0.0462.
ACGTGAAT was tested, and the “PBM E-score” value was 0.00639.
With ACTGCCTG the “PBM E-score” value was -0.105.
For AACGTACG, the “PBM E-score” value was -0.038.
GCGGCTAC was tested, and the “PBM E-score” value was 0.0658.
CGTCTACC was tested, and the “PBM E-score” value was -0.0946.
For GTTCCGCA, the “PBM E-score” value was 0.152.
With AGGTGGAC the “PBM E-score” value was -0.143.
GAACGGTA was tested, and the “PBM E-score” value was -0.0259.
ATCTTGAC was tested, and the “PBM E-score” value was 0.0304.
In the case of AATTGGCA, the “PBM E-score” value was -0.0168.
With AGGGGTTC the “PBM E-score” value was 0.169.
For CCAGTACA, the “PBM E-score” value was 0.0288.
In the case of CGTGAATC, the “PBM E-score” value was -0.112.
For GGTCCAGA, the “PBM E-score” value was 0.125.
With CACGCTGA the “PBM E-score” value was -0.0997.
For CAGCGCAG, the “PBM E-score” value was -0.0797.
In the case of AAGACTCG, the “PBM E-score” value was -0.0824.
For CAAGACCC, the “PBM E-score” value was 0.0254.
With CCGCGGCG the “PBM E-score” value was 0.0423.
For CCAGTGAA, the “PBM E-score” value was -0.23.
For GACGCCTA, the “PBM E-score” value was 0.0134.
With CTGATCGA the “PBM E-score” value was -0.214.
In the case of AATACAGC, the “PBM E-score” value was 0.13.
For CAAAAGCC, the “PBM E-score” value was -0.021.
For CGATTGTC, the “PBM E-score” value was -0.00587.
For TCCCCAAA, the “PBM E-score” value was 0.113.
In the case of AGGTCGTG, the “PBM E-score” value was -0.0806.
With GAAGGTAC the “PBM E-score” value was -0.0911.
For ACTTCATC, the “PBM E-score” value was 0.0308.
In the case of AGGCCACA, the “PBM E-score” value was -0.149.
GTGGCCCA was tested, and the “PBM E-score” value was -0.0223.
For AGGTAATA, the “PBM E-score” value was 0.14.
In the case of ATCCCTCG, the “PBM E-score” value was 0.0848.
For CCTCACAG, the “PBM E-score” value was 0.0646.
GTTTGGTA was tested, and the “PBM E-score” value was 0.197.
In the case of AGTTCACC, the “PBM E-score” value was 0.105.
With GAGGCCAC the “PBM E-score” value was -0.0494.
For CGTGATAA, the “PBM E-score” value was -0.0171.
In the case of ATTCTTCG, the “PBM E-score” value was 0.054.
In the case of AAAGCCTT, the “PBM E-score” value was -0.174.
In the case of CTGCATAA, the “PBM E-score” value was 0.102.
In the case of CAATGATA, the “PBM E-score” value was 0.128.
With ATTCGATG the “PBM E-score” value was -0.00387.
With ATCGCTCA the “PBM E-score” value was 0.0717.
With ACAGCCCA the “PBM E-score” value was -0.221.
For ATTTGAGC, the “PBM E-score” value was -0.0085.
With CATAGGTA the “PBM E-score” value was -0.0194.
With ATGACATA the “PBM E-score” value was 0.161.
CCGACCGG was tested, and the “PBM E-score” value was -0.137.
In the case of CGATGCAA, the “PBM E-score” value was -0.0143.
In the case of AGTGTGCA, the “PBM E-score” value was 0.134.
For ACGTTGAT, the “PBM E-score” value was 0.0819.
With CTGGCGGC the “PBM E-score” value was -0.0616.
For CAAGACGA, the “PBM E-score” value was -0.0054.
With GTAGCGTA the “PBM E-score” value was 0.012.
In the case of TCAATGGA, the “PBM E-score” value was -0.029.
For GAGAACCC, the “PBM E-score” value was 0.0255.
In the case of GGTCGTGA, the “PBM E-score” value was -0.184.
ATACTTTG was tested, and the “PBM E-score” value was 0.138.
With AATTATCT the “PBM E-score” value was 0.205.
AGATGCAG was tested, and the “PBM E-score” value was 0.0787.
CTCTTATA was tested, and the “PBM E-score” value was 0.0901.
With CAGTGCAC the “PBM E-score” value was -0.0259.
With GACCCCAC the “PBM E-score” value was 0.142.
AAAAACAC was tested, and the “PBM E-score” value was 0.0766.
With ACCTGACC the “PBM E-score” value was -0.197.
In the case of AAATTGTG, the “PBM E-score” value was -0.0563.
For AAGGCTGA, the “PBM E-score” value was -0.081.
In the case of AAGAACAC, the “PBM E-score” value was 0.0704.
For AGCACAAC, the “PBM E-score” value was 0.0937.
In the case of ACCGAACT, the “PBM E-score” value was -0.146.
With CTGGTTTC the “PBM E-score” value was 0.146.
With CTGTCAAA the “PBM E-score” value was -0.0866.
For ATAGGCAT, the “PBM E-score” value was -0.0379.
In the case of ACTACTAT, the “PBM E-score” value was 0.27.
For GTCACACA, the “PBM E-score” value was -0.0792.
GATGGCGC was tested, and the “PBM E-score” value was -0.034.
For CGTGGATC, the “PBM E-score” value was 0.0135.
ACGTAAGA was tested, and the “PBM E-score” value was -0.069.
With GACTCGAA the “PBM E-score” value was -0.181.
In the case of TAATTCAA, the “PBM E-score” value was 0.152.
ATCGGGCC was tested, and the “PBM E-score” value was -0.2.
CTGTCGCC was tested, and the “PBM E-score” value was 0.0267.
In the case of GCGAGTCC, the “PBM E-score” value was -0.0555.
For CTTGAGCC, the “PBM E-score” value was -0.0733.
With AATCAACA the “PBM E-score” value was 0.239.
In the case of CGCCTGGA, the “PBM E-score” value was 0.042.
GAGCTCTA was tested, and the “PBM E-score” value was 0.106.
In the case of ACATCTAG, the “PBM E-score” value was 0.113.
For ATCAACAC, the “PBM E-score” value was 0.105.
CTTCATAC was tested, and the “PBM E-score” value was 0.112.
For CTGAAAGA, the “PBM E-score” value was -0.0879.
With CCGTGCGA the “PBM E-score” value was 0.127.
With TCTAGACA the “PBM E-score” value was 0.0482.
In the case of AAGCAGAC, the “PBM E-score” value was -0.00611.
With AGTGGAAA the “PBM E-score” value was -0.0137.
With CGAGACCG the “PBM E-score” value was -0.0751.
GGCAATAC was tested, and the “PBM E-score” value was 0.176.
GCCTTCGA was tested, and the “PBM E-score” value was -0.174.
For CCATCCCG, the “PBM E-score” value was -0.133.
With AAAAGATA the “PBM E-score” value was 0.0533.
In the case of CTTATCCA, the “PBM E-score” value was -0.0715.
ACCATGGC was tested, and the “PBM E-score” value was 0.088.
GATTTGCA was tested, and the “PBM E-score” value was 0.15.
With AACCGATA the “PBM E-score” value was 0.172.
TATCTCAA was tested, and the “PBM E-score” value was 0.267.
AACTCCTG was tested, and the “PBM E-score” value was -0.136.
With AATGGCGA the “PBM E-score” value was 0.18.
ACACCGTG was tested, and the “PBM E-score” value was -0.138.
With CCGGTTGC the “PBM E-score” value was 0.0222.
GTGCTTTA was tested, and the “PBM E-score” value was 0.00519.
For CCTTTGCC, the “PBM E-score” value was -0.196.
AATTCGTA was tested, and the “PBM E-score” value was 0.0307.
In the case of GAGAGCGA, the “PBM E-score” value was -0.0278.
For CACACATG, the “PBM E-score” value was -0.019.
GGTGTGAA was tested, and the “PBM E-score” value was 0.132.
For CCTAATAG, the “PBM E-score” value was -0.0529.
For ACATTAGA, the “PBM E-score” value was -0.0413.
With CGTTGCAG the “PBM E-score” value was -0.075.
With GGCTTGAA the “PBM E-score” value was -0.0173.
In the case of CCAACCCG, the “PBM E-score” value was -0.0787.
AACATGCA was tested, and the “PBM E-score” value was 0.121.
In the case of AGACCCTG, the “PBM E-score” value was 0.431.
With GGTTTTAA the “PBM E-score” value was 0.0537.
In the case of TAATCGAA, the “PBM E-score” value was 0.176.
In the case of CCTAGCTC, the “PBM E-score” value was -0.0333.
In the case of CAAGATGG, the “PBM E-score” value was -0.0175.
With CCACTGCA the “PBM E-score” value was -0.0415.
AAATGGGA was tested, and the “PBM E-score” value was -0.0677.
With CAAATTGG the “PBM E-score” value was 0.181.
For AGACGGCC, the “PBM E-score” value was -0.0662.
For GCGAAAAA, the “PBM E-score” value was 0.176.
CATCTAAG was tested, and the “PBM E-score” value was 0.0254.
For AGACCTAC, the “PBM E-score” value was -0.067.
TCGATAAA was tested, and the “PBM E-score” value was 0.013.
CACTTTGG was tested, and the “PBM E-score” value was 0.0319.
For GCCTTCAC, the “PBM E-score” value was 0.0605.
For AGGGGTTA, the “PBM E-score” value was 0.0393.
GACCCGAC was tested, and the “PBM E-score” value was -0.0111.
TATCATGA was tested, and the “PBM E-score” value was 0.093.
ACCTAGAA was tested, and the “PBM E-score” value was -0.0741.
With CCAAACGG the “PBM E-score” value was -0.0561.
ACCTTATA was tested, and the “PBM E-score” value was 0.099.
GCCTTCCA was tested, and the “PBM E-score” value was -0.051.
AATTGGCC was tested, and the “PBM E-score” value was -0.0225.
In the case of ATTTATAC, the “PBM E-score” value was 0.208.
AGCCGGAC was tested, and the “PBM E-score” value was 0.125.
CGCAGGTA was tested, and the “PBM E-score” value was 0.056.
With CGCCCCCC the “PBM E-score” value was -0.457.
In the case of GGGGAGAA, the “PBM E-score” value was -0.21.
With CCGGTTAA the “PBM E-score” value was -0.0773.
With CGTTACTC the “PBM E-score” value was -0.132.
GTAAAGTA was tested, and the “PBM E-score” value was 0.0985.
GCACGACC was tested, and the “PBM E-score” value was -0.0619.
With CCAATGTA the “PBM E-score” value was -0.177.
AACCAGAG was tested, and the “PBM E-score” value was 0.103.
For CAAGTGTC, the “PBM E-score” value was 0.00801.
With AAGCGGGT the “PBM E-score” value was 0.00955.
In the case of ATTCCCTC, the “PBM E-score” value was 0.0205.
